At least one structure is not confirmed: it was looked up by name or label, or the drawing left a doubt. Some of these results come from one statement about several compounds together.
Key:
[1] = test system: ES-cell-derived embryoid bodies; assay: HB9+ motor neuron generation in embryoid bodies; type: cell-based, mouse
Procedure: (§1) For some experiments, ES cells were grown on a monolayer of stromal PA6 cell line (Riken Cell Bank, Japan), in DFK5 medium alone, or supplemented with 2 μM RA, as described (Kawasaki et al., Induction of midbrain dopaminergic neurons from ES cells by stromal cell-derived inducing activity. Neuron, 28:31-40, 2000).
To begin to examine the capacity of mouse ES cells to generate motor neurons, the inventors grew mouse ES cells in aggregate culture for 2 days, a procedure that results in the formation of embryoid bodies (EBs) (Bain et al., Embryonic stem cells express neuronal properties in vitro. Dev. Biol., 168:342-57, 1995).

[2] = test system: neural progenitor cells in embryoid bodies; assay: Progenitor transcription factor expression (ventralization) in RA-exposed embryoid bodies; type: cell-based, mouse; settings: EBs exposed to RA for 3 days
[3] = test system: embryoid bodies derived from mouse ES cells; assay: Neural induction and rostrocaudal identity in embryoid bodies exposed to RA
[4] = test system: HBG3 ES cells; assay: eGFP+ motor neuron generation in HBG3 ES-cell-derived embryoid bodies; type: cell-based, mouse; settings: 5 days in RA, without Hh-Ag1.3
Procedure: as §1
A transgenic mouse line was established by pronucleus injection of a construct that used a ˜9 kB fragment comprising the 5′ upstream region of the murine HB9 gene (Arber et al., Requirement for the homeobox gene Hb9 in the consolidation of motor neuron identity. Neuron, 23:659-764, 1999), followed by a 5′ splice substrate (Choi et al., A generic intron increases gene expression in transgenic mice. Mol. Cell Biol., 11:3070-74, 1991), an eGFP gene, and a bovine growth hormone polyadenylation signal. The ˜9 kB Not1 fragment of HB9 is sufficient to direct eGFP expression to develop motor neurons in transgenic embryos examined from E9.5 to P10. […]
HBG3 ES-cell embryoid bodies were dissociated using a papain dissociation system (Worthington Biochemical Corp.). Cells expressing high levels of eGFP were sorted from the cell suspension with a Beckman-Coulter Altra flow cytometer, based on their eGFP fluorescence and forward light scatter using the gate indicated in the plot. […]

[5] = test system: ES cells grown on PA6 cells; assay: Caudalization of ES cells neuralized on PA6 stromal cells; type: cell-based, mouse
[6] = test system: ES cells / embryoid bodies; assay: Suppression and induction of a neural character in differentiating embryoid bodies; type: cell-based, mouse; settings: EBs differentiated 4 days in presence of RA
Procedure: Medium was replaced every 2 days. Medium was supplemented by factors, at the start of ES-cell aggregation/differentiation (day 0) or on day 2, as indicated below, and cultured for a further 2-8 days.
Soluble Wnt3a and control-conditioned medium (Wilson et al., The status of Wnt signaling regulates neural and epidermal fates in the chick embryo. Nature, 411:325-30, 2001) were prepared, as previously described (Shibamoto et al., Cytoskeletal reorganization by soluble Wnt-3a protein signalling. Genes Cells, 3:659-70, 1998). Soluble Frizzled 8 (mFrz8CRD-IgG) and control-conditioned medium were prepared by transfecting HEK-293 cells with mfz8CRD-IgG (Hsieh et al., Biochemical characterization of Wnt-frizzled interactions using a soluble, biologically active vertebrate Wnt protein. Proc. Natl. Acad. Sci. USA, 96:3546-51, 1999) or LacZ reporter construct (Wilson et al., An early requirement for FGF signalling in the acquisition of neural cell fate in the chick embryo. Curr. Biol., 10:421-29, 2000). The transfected HEK-293 cells were then incubated for 48 h in OPTI-MEM medium. mFrzCRD-1gG conditioned medium was used undiluted.
Immunohistochemical localization of proteins was performed, as previously described (Yamada et al., Control of cell pattern in the developing nervous system: polarizing activity of the floor plate and notochord. Cell, 64:635-47, 1991). […]

[7] = PA6 cell activity and RA (2 μM)

Compound | cells in EBs expressing HB9 ([1]; RA-treated EBs plus SHh (300 nM) or Hh-Ag1.3 (1 μM)) | cells expressing Nkx6.1, Olig2 or Nkx2.2 [2] | cells expressing Pax7, Pax6, Irx3 and Dbx1 [2] | Hoxc5, Hoxc6, Hoxc8 expression ([3]; EBs exposed to RA for 3 days) | Otx2 and En1 expression ([3]; EBs exposed to RA for 3 days) | Sox1+ neural progenitor cells ([3]; RA (100 nM to 2 μM) for 2-3 days) | NeuN+, TuJ1+ post-mitotic neurons ([3]; RA (100 nM to 2 μM), by 5 days) | HB9+ neurons in EBs ([1]; RA (2 μM) for 5 days, no Hh-Ag1.3) | HB9+ motor neurons in HBG3 EBs [4] | HB9+ motor neurons ([5]; ES cells on PA6 cells for 10 days, 2 μM RA added on day 2) | Hoxc5 and Hoxc6 expression [5, 7] | Otx2 and En1 expression [5, 7] | Sox1+ cells [5, 7] | proportion of cells expressing Sox1 [6]
CNC1CCC(N(Cc2cccc(-c3ccncc3)c2)C(=O)c2sc3ccccc3c2Cl)CC1 (centres unmarked) [Hh-Ag1.3] | 20-30% |  |  |  |  |  |  |  |  |  |  |  |  | 
CC1=C(/C=C/C(C)=C/C=C/C(C)=C/C(=O)O)C(C)(C)CCC1 [RA, retinoic acid] |  | few, if any, cells | many cells | expressed Hoxc5 and Hoxc6, but not Hoxc8 | lacked Otx2 and En1 expression | many Sox1^+ cells | many NeuN^+, TuJ1^+ post-mitotic neurons were detected | contained a small number of HB9^+ neurons | contained a few HB9^+ motor neurons | generation of a large number of HB9^+ motor neurons | many now expressed Hoxc5 and Hoxc6 | lacked Otx2 and En1 expression | still induced many Sox1^+ cells | a higher proportion of cells expressed the neural precursor marker, Sox1

Reference: patent US7632679B2, “Systems and methods for screening for modulators of neural differentiation” (The Trustees of Columbia University in the City of New York, priority 2002, dated 2009)
